From publication PMC7415798
These are yes or no findings as the source states them, for the method shown. Binding seen in cells or lysates may run through a third protein. Some entries that bind do so weakly or less than the wild type. For some assays here: Tags and fused reporters may be left off the sequences shown.

By UniProt entry, the sequences of proteins in these tests, tags left out.
UniProt Q12778: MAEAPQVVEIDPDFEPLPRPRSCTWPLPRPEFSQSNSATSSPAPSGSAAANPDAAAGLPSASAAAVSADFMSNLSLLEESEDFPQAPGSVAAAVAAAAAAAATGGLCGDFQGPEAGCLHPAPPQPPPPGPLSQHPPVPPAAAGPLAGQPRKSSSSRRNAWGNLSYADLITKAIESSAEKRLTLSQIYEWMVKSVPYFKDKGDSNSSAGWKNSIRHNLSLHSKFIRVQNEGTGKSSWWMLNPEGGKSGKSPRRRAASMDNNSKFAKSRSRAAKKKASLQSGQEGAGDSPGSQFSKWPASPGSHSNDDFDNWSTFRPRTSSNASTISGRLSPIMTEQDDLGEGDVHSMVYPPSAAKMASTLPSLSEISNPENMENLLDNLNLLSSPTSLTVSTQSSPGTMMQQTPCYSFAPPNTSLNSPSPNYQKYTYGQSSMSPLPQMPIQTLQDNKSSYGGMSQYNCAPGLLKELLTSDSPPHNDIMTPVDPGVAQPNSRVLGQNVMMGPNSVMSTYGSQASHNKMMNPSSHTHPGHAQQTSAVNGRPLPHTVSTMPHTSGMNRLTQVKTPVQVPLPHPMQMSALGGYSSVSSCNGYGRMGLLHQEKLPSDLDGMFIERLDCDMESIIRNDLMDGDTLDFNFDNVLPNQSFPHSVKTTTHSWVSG

Tests used:
[1] = molecular target: T1, methyltransferase-like 14 (METTL14), endogenous (human (endogenous in HUVECs)) (UniProt Q9HCE5); assay: co-IP; endogenous proteins in HUVEC lysate; precipitated with anti-METTL14 or anti-FOXO1 antibodies; lysis in RIPA buffer, immunoblot
T1 sequence: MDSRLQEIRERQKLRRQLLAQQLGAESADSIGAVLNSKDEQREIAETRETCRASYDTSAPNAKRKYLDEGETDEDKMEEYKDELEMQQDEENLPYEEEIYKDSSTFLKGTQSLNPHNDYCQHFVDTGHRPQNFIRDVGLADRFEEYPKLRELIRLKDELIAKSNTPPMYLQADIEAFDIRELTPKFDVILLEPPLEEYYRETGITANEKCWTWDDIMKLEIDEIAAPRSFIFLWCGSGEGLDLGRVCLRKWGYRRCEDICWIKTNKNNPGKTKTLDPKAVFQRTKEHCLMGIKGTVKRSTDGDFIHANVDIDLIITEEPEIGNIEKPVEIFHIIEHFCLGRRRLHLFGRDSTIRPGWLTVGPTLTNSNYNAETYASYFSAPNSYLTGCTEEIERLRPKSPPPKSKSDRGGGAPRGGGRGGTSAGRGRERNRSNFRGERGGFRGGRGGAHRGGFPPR

[2] = molecular target: T2, flag-tagged METTL14 (human) (UniProt Q9HCE5); assay: co-IP; flag-tagged METTL14 and myc-tagged FOXO1 ectopically expressed in 293T cells; co-IP with anti-flag or anti-myc antibodies; lysis in RIPA buffer, immunoblot
T2 sequence: T1 sequence

Row | Substance | binding [1] | binding [2]
1 | forkhead box O1 (FOXO1), endogenous (from UniProt Q12778 1-655) | binds | 
2 | myc-tagged FOXO1 (from UniProt Q12778 1-655) |  | binds
